The target of this test is ORF4 (Se locus, from indica-derived NIL E9) (Oryza sativa ssp. indica (E9)). Put plainly: two-hybrid; yeast two-hybrid system; bait and prey not told.

These are yes or no findings as the source states them, for the method shown.

B1: ORF3 (Se locus, from indica-derived NIL E9) (protein, UniProt Q9SSW3 1-298)
chain: MAEEKESFEGQWAPSNVTEENLKEMVAHGVLPAKEIIGWRPACGEAFPSPDTHEVVVFSHFFYGGFALPTSKFFRGILNFYGISLHHLNPNSIVHIANFIHVCEAFLGIKPHFALFRRIFFLKPQPNKSKPCVVGGAGFQLRGTLSQKYFSMPFKTSNKGWHANWFYIQNPEPALPEYSCLPPVYQDTWNSLPIGDEAAQALELMDRMLKLKEQGLQGEQITRHFIKCRLAPIKERSRTAFEFDGKHDPNREEPDSLDFKIMKERMYKIFSNAIVVSYSHQLPVVPYNAFNPPPQVCI
For the molecule B1, the binding result is listed as “no binding”.

The record behind these values is article PMC10382596.
